Here are results for 31 compounds from the supplement of paper PMC4604168 (melanoma cell lines).

Molecules are shown by their SMILES. The list shows a part of the results. Repeats are few or missing, and single values can be far off.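 Cells were imaged in 1,536-well plates, and nuclei stained with an antibody against cleaved PARP were counted against all DNA-stained nuclei to give the apoptosis fraction. Screening doses were chosen to leave most cells alive, and resting and induced cleaved-PARP levels differ strongly between cell lines.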

One assay has as its system WM115. The experiment in a line: cleaved PARP positive nuclei fraction relative to DMSO control; melanoma cells; higher = more apoptosis. As to conditions: library dose: low library concentration; 72 h.
`N.N.[Cl][Pt][Cl]` [cisplatin] + CO[C@@H]1[C@H](N(C)C(=O)c2ccccc2)C[C@H]2O[C@]1(C)n1c3ccccc3c3c4c(c5c6ccccc6n2c5c31)C(=O)NC4 [Midostaurin] (first compound 1.6 µM, partner dose 0.08 µM): the “cleaved PARP positive nuclei fraction” value worked out at 113%.
Turning to `CCN(CC)CCNC(=O)c1c(C)[nH]c(/C=C2\C(=O)Nc3ccc(F)cc32)c1C` [sunitinib] + O=C(Oc1ccc([N+](=O)[O-])cc1)N1CCC(C(O)(c2ccc3c(c2)OCO3)c2ccc3c(c2)OCO3)CC1 [JZL184] (first compound 0.4 µM, partner dose 1 µM), the “cleaved PARP positive nuclei fraction” value came out at 33.5%.
Still for that read-out and setting: under `N.N.[Cl][Pt][Cl]` [cisplatin] + Oc1cc(-c2nc(-c3ccccc3)[nH]c2-c2ccncc2)ccc1Cl [L779450] (first compound 1.6 µM, partner dose 0.2 µM) stands 156%.
Still for that read-out and setting: as for `Clc1ccc(Nc2nnc(Cc3ccncc3)c3ccccc23)cc1` [vatalanib] + O=C(Oc1ccc([N+](=O)[O-])cc1)N1CCC(C(O)(c2ccc3c(c2)OCO3)c2ccc3c(c2)OCO3)CC1 [JZL184] (first compound 2 µM, partner dose 1 µM), the figure is 152%; as for `C[As](C)SC[C@H](NC(=O)CC[C@H](N)C(=O)O)C(=O)NCC(=O)O` [Darinaparsin] + OCCn1cc(-c2cnc3nnn(Cc4ccc5ncccc5c4)c3n2)cn1 [PF04217903] (first compound 0.4 µM, partner dose 1 µM), 30.3%; as for `C[C@@H](N)c1ccc(C(=O)Nc2ccnc3[nH]ccc23)cc1` + Cc1cc(SCc2sc(-c3ccc(C(F)(F)F)c(F)c3)nc2C)ccc1OCC(=O)O [GW0742] (first compound 0.4 µM, partner dose 2 µM), 240%.
Same read-out and setting: under `N.N.[Cl][Pt][Cl]` [cisplatin] + Cn1cncc1[C@@](N)(c1ccc(Cl)cc1)c1ccc2c(c1)c(-c1cccc(Cl)c1)cc(=O)n2C [tipifarnib] (first compound 1.6 µM, partner dose 0.01 µM) stands 38.8%.

In another assay the test system is WM1716. The assay is described as above. As to conditions: library dose: low library concentration; 72 h.
On to `NC1(c2ccc(-c3nc4ccn5c(=O)[nH]nc5c4cc3-c3ccccc3)cc2)CCC1` + O=C(Oc1ccc([N+](=O)[O-])cc1)N1CCC(C(O)(c2ccc3c(c2)OCO3)c2ccc3c(c2)OCO3)CC1 [JZL184] (first compound 0.4 µM, partner dose 1 µM), for which the “cleaved PARP positive nuclei fraction” value came out at 30.8%.
For the compound `COc1ccc(C2=N[C@@H](c3ccc(Cl)cc3)[C@@H](c3ccc(Cl)cc3)N2C(=O)N2CCNC(=O)C2)c(OC(C)C)c1` [Nutlin-3] + C/C(O)=C(\C#N)C(=O)Nc1cc(Br)ccc1Br [LFM-A13] (first compound 0.1 µM, partner dose 2 µM), the “cleaved PARP positive nuclei fraction” value stood at 53.7%.
On to `O=C(/C=C/c1cccnc1)NCCCCC1CCN(C(=O)c2ccccc2)CC1` + Cc1cc(SCc2sc(-c3ccc(C(F)(F)F)c(F)c3)nc2C)ccc1OCC(=O)O [GW0742] (first compound 0.01 µM, partner dose 2 µM), for which the “cleaved PARP positive nuclei fraction” value amounted to 108%.
Turning to `C[As](C)SC[C@H](NC(=O)CC[C@H](N)C(=O)O)C(=O)NCC(=O)O` [Darinaparsin] + NC(=O)Nc1cc(-c2cccc(F)c2)sc1C(=O)N[C@H]1CCCNC1 [AZD7762] (first compound 0.4 µM, partner dose 0.02 µM), the “cleaved PARP positive nuclei fraction” value was determined as 71%.
The same measure, in the same setting: as for `C[As](C)SC[C@H](NC(=O)CC[C@H](N)C(=O)O)C(=O)NCC(=O)O` [Darinaparsin] + C[C@@H]1CCN(C(=O)CC#N)C[C@@H]1N(C)c1ncnc2[nH]ccc12 [CP690550] (first compound 0.4 µM, partner dose 1 µM), the figure is 66.9%.
On to `C[C@]1(O)C[C@@H](c2nc(-c3ccc4ccc(-c5ccccc5)nc4c3)c3c(N)nccn32)C1` + C/C(O)=C(\C#N)C(=O)Nc1cc(Br)ccc1Br [LFM-A13] (first compound 0.4 µM, partner dose 2 µM), for which the “cleaved PARP positive nuclei fraction” value stood at 114%.
With `N.N.[Cl][Pt][Cl]` [cisplatin] + Cc1cc([N+](=O)[O-])ccc1NS(=O)(=O)c1cc(Cl)ccc1Cl [FH535] (first compound 1.6 µM, partner dose 1 µM), the “cleaved PARP positive nuclei fraction” value came to 103%.
Same read-out and setting: as for `Cn1cc(C2=C(c3cn(C4CCN(Cc5ccccn5)CC4)c4ccccc34)C(=O)NC2=O)c2ccccc21` [Enzastaurin] + O=C1NC(=O)/C(=C/c2ccc(-c3ccc(F)cc3O)o2)S1 [AS252424] (first compound 0.8 µM, partner dose 1 µM), the figure is 69.1%; as for `C=CCNC1=C2C[C@@H](C)C[C@H](OC)[C@H](O)[C@@H](C)/C=C(\C)[C@H](OC(N)=O)[C@@H](OC)/C=C\C=C(/C)C(=O)NC(=CC1=O)C2=O` [Tanespimycin] + Cc1cc(SCc2sc(-c3ccc(C(F)(F)F)c(F)c3)nc2C)ccc1OCC(=O)O [GW0742] (first compound 0.002 µM, partner dose 2 µM), 164%.
For the compound `O=C(O)c1ccc2c(c1)nc(Nc1cccc(Cl)c1)c1ccncc12` + O=C(Oc1ccc([N+](=O)[O-])cc1)N1CCC(C(O)(c2ccc3c(c2)OCO3)c2ccc3c(c2)OCO3)CC1 [JZL184] (first compound 0.4 µM, partner dose 1 µM), the “cleaved PARP positive nuclei fraction” value was 54.1%.
Turning to `N.N.[Cl][Pt][Cl]` [cisplatin] + Cc1cc(N2CCOCC2)cc2[nH]c(-c3c(NC[C@@H](O)c4cccc(Cl)c4)cc[nH]c3=O)nc12 [BMS536924] (first compound 1.6 µM, partner dose 0.2 µM), the “cleaved PARP positive nuclei fraction” value stood at 83.6%.
On to `CC1(C)CCC(c2ccc(Cl)cc2)=C(CN2CCN(c3ccc(C(=O)NS(=O)(=O)c4ccc(N[C@H](CCN5CCOCC5)CSc5ccccc5)c(S(=O)(=O)C(F)(F)F)c4)cc3)CC2)C1` + O=C(Oc1ccc([N+](=O)[O-])cc1)N1CCC(C(O)(c2ccc3c(c2)OCO3)c2ccc3c(c2)OCO3)CC1 [JZL184] (first compound 0.4 µM, partner dose 1 µM), for which the “cleaved PARP positive nuclei fraction” value was 197%.
The same measure, in the same setting: as for `Cc1cc(Nc2cc(N3CCN(C)CC3)nc(/C=C/c3ccccc3)n2)n[nH]1` + C/C(O)=C(\C#N)C(=O)Nc1cc(Br)ccc1Br [LFM-A13] (first compound 0.04 µM, partner dose 2 µM), the figure is 137%; as for `N.N.[Cl][Pt][Cl]` [cisplatin] + OCCn1cc(-c2cnc3nnn(Cc4ccc5ncccc5c4)c3n2)cn1 [PF04217903] (first compound 1.6 µM, partner dose 1 µM), 165%; as for `Cn1cc(C2=C(c3cn(C4CCN(Cc5ccccn5)CC4)c4ccccc34)C(=O)NC2=O)c2ccccc21` [Enzastaurin] + COc1ccc(COc2ccc(Cc3cnc(N)nc3N)cc2OC)cc1 [GW2580] (first compound 0.8 µM, partner dose 1 µM), 220%.
Turning to `Cn1cc(C2=C(c3cn(C4CCN(Cc5ccccn5)CC4)c4ccccc34)C(=O)NC2=O)c2ccccc21` [Enzastaurin] + c1cc(-c2cnn3cc(-c4ccc(OCCN5CCCCC5)cc4)cnc23)ccn1 [Dorsomorphin] (first compound 0.8 µM, partner dose 0.4 µM), the “cleaved PARP positive nuclei fraction” value is 89.6%.
Regarding `C[As](C)SC[C@H](NC(=O)CC[C@H](N)C(=O)O)C(=O)NCC(=O)O` [Darinaparsin] + C=CCn1c(=O)c2cnc(Nc3ccc(N4CCN(C)CC4)cc3)nc2n1-c1cccc(C(C)(C)O)n1 [MK1775] (first compound 0.4 µM, partner dose 0.02 µM), the “cleaved PARP positive nuclei fraction” value is 243%.
On the same count and under the same terms, under `Cn1cc(C2=C(c3cn(C4CCN(Cc5ccccn5)CC4)c4ccccc34)C(=O)NC2=O)c2ccccc21` [Enzastaurin] + OCCn1cc(-c2cnc3nnn(Cc4ccc5ncccc5c4)c3n2)cn1 [PF04217903] (first compound 0.8 µM, partner dose 1 µM) stands 77.5%; under `N.N.[Cl][Pt][Cl]` [cisplatin] + CN(NC(=O)CC(=O)NN(C)C(=S)c1ccccc1)C(=S)c1ccccc1 [STA4783] (first compound 1.6 µM, partner dose 0.006 µM), 33.8%.
For the compound `C=C(c1ccc(C(=O)O)cc1)c1cc2c(cc1C)C(C)(C)CCC2(C)C` [Bexarotene] + O=C(Oc1ccc([N+](=O)[O-])cc1)N1CCC(C(O)(c2ccc3c(c2)OCO3)c2ccc3c(c2)OCO3)CC1 [JZL184] (first compound 2 µM, partner dose 1 µM), the “cleaved PARP positive nuclei fraction” value came out at 96.1%.
Same read-out and setting: under `Cn1sc(=O)n(Cc2ccccc2)c1=O` + O=C(Oc1ccc([N+](=O)[O-])cc1)N1CCC(C(O)(c2ccc3c(c2)OCO3)c2ccc3c(c2)OCO3)CC1 [JZL184] (first compound 0.4 µM, partner dose 1 µM) stands 132%; under `C[As](C)SC[C@H](NC(=O)CC[C@H](N)C(=O)O)C(=O)NCC(=O)O` [Darinaparsin] + COc1cc(Nc2ncc(F)c(Nc3ccc4c(n3)NC(=O)C(C)(C)O4)n2)cc(OC)c1OC [Tamatinib] (first compound 0.4 µM, partner dose 0.4 µM), 107%; under `CNC(=O)c1cc(Oc2ccc(NC(=O)Nc3ccc(Cl)c(C(F)(F)F)c3)cc2)ccn1` [sorafenib] + Cc1cc(SCc2sc(-c3ccc(C(F)(F)F)c(F)c3)nc2C)ccc1OCC(=O)O [GW0742] (first compound 0.4 µM, partner dose 2 µM), 108%.
Still for that read-out and setting: as for `Cn1cc(C2=C(c3cn(C4CCN(Cc5ccccn5)CC4)c4ccccc34)C(=O)NC2=O)c2ccccc21` [Enzastaurin] + COC(=O)c1sccc1S(=O)(=O)Nc1ccc(Nc2ccccc2)cc1OC [GSK0660] (first compound 0.8 µM, partner dose 1 µM), the figure is 136%.
